{
  "sequences": {"note": "By UniProt entry, the sequences of proteins in these tests, tags left out. Where a name states a change or a piece, a line headed by the entry shows the natural chain unless it says otherwise. Chains listed by the source or under a name are the forms on record and can include a tag or linker.", "UniProt Q04759": "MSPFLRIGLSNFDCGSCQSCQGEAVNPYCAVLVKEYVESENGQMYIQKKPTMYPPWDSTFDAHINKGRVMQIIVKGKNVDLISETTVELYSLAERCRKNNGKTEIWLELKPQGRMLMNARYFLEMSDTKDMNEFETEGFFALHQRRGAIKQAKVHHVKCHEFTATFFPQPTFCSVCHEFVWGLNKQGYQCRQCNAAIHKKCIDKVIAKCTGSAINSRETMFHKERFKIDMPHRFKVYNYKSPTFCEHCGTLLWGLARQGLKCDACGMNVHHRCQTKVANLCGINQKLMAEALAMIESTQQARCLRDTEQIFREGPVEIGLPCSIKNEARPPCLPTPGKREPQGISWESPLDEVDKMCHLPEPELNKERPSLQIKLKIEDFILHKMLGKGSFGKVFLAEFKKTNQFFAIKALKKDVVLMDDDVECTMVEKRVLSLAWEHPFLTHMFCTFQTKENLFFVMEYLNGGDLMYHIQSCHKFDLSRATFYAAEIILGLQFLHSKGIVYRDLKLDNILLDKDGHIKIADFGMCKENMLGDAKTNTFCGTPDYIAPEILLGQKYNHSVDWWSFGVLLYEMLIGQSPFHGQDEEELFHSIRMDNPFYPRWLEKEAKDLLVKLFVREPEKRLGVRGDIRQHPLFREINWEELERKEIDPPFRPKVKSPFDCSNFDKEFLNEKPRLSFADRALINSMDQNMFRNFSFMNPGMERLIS", "CD45RO (P08575-4, form named)": "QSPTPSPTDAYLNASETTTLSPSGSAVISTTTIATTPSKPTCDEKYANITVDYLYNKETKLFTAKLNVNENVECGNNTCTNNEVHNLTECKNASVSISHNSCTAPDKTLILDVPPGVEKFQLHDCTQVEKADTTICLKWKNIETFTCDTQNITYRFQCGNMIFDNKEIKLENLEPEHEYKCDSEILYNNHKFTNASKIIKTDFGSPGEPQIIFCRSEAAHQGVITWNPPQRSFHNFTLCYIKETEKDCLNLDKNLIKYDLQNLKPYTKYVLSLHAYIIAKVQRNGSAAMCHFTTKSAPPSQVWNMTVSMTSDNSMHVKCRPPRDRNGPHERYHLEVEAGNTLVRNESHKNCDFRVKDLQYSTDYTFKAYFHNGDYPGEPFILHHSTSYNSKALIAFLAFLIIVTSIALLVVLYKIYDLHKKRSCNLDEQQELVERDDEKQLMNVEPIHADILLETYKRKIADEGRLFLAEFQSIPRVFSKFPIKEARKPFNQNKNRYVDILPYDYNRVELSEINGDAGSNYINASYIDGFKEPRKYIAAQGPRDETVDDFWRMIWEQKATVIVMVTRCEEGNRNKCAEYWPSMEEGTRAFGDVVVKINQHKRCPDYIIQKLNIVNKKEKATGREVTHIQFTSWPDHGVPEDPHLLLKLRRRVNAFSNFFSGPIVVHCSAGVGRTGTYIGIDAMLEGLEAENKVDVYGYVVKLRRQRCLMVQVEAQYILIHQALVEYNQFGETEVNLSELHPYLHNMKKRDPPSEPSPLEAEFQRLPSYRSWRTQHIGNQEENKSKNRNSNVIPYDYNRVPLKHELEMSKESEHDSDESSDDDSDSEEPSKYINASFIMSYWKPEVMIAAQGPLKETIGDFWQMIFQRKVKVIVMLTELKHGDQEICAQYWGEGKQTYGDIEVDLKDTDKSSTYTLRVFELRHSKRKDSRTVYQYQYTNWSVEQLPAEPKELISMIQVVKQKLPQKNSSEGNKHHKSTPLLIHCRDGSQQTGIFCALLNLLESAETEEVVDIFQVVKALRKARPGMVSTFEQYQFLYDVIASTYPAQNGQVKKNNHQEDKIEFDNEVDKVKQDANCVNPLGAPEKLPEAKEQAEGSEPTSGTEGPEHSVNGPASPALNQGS"},
  "source": "paper doi:10.1101/854323",
  "key": {"CD53-mCitrine (human)": {"target": "T1, CD53-mCitrine (human) (UniProt P19397)", "T1 sequence": "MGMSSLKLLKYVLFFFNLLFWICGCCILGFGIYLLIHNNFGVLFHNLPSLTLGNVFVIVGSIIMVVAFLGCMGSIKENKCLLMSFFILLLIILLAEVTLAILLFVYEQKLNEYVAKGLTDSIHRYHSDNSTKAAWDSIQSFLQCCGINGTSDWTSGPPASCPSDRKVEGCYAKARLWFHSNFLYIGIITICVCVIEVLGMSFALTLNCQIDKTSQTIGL", "test": "FRET or BRET"}, "[1]": {"target": "T2, tetraspanin CD53 (human (endogenous in Raji and CEM)) (UniProt P19397)", "T2 sequence": "T1 sequence", "test": "co-IP"}},
  "note": "Results are given in words; binding and its absence hold for the method and conditions named. Binding seen in cells or lysates may run through a third protein. Some results given as binding are weak or reduced against the parent protein; the word gives no strength.",
  "data": [
    {"substance": "mCherry-PKCθ (from UniProt Q04759 1-706)", "values": [
      {"measurement": "binding", "setting": "CD53-mCitrine (human)", "result": "no binding"}
    ]},
    {"substance": "CD45RO (from UniProt P08575-4 26-1145)", "values": [
      {"measurement": "binding", "setting": "[1]", "result": "binds"}
    ]}
  ]
}
